Results from patent US11518794 (dated 2022).

Assay: general procedure: Fmoc solid-phase peptide synthesis; Fmoc-Gly-Wang resin (0.279 mmol/g); 2-CTC resin; DIC/HOBt; PyBOP/HOBt/DIPEA
Conditions: whole synthesis; for isolated yield: total yield
[1] = HPLC, scale of the general procedure 4.25 g of Fmoc-Gly-Wang resin (0.279 mmol/g), run 1
[2] = HPLC, scale of the general procedure 4.25 g of Fmoc-Gly-Wang resin (0.279 mmol/g), run 2
[3] = HPLC, scale of the general procedure 4.25 g of Fmoc-Gly-Wang resin (0.279 mmol/g), run 3
[4] = HPLC, scale of the general procedure 4.25 g of Fmoc-Gly-Wang resin (0.279 mmol/g), run 4
[5] = HPLC, scale of the general procedure 4.25 g of Fmoc-Gly-Wang resin (0.279 mmol/g), run 5
[6] = HPLC, scale of the general procedure 4.25 g of Fmoc-Gly-Wang resin (0.279 mmol/g), run 6
[7] = HPLC, scale of the general procedure 4.25 g of Fmoc-Gly-Wang resin (0.279 mmol/g), run 7
[8] = HPLC, scale of the general procedure 4.25 g of Fmoc-Gly-Wang resin (0.279 mmol/g), run 8
[9] = HPLC, scale of the general procedure 4.25 g of Fmoc-Gly-Wang resin (0.279 mmol/g), run 9
[10] = HPLC, scale of the general procedure 4.25 g of Fmoc-Gly-Wang resin (0.279 mmol/g), run 10
[11] = scale of the general procedure 4.25 g of Fmoc-Gly-Wang resin (0.279 mmol/g), run 1
[12] = scale of the general procedure 4.25 g of Fmoc-Gly-Wang resin (0.279 mmol/g), run 2
[13] = scale of the general procedure 4.25 g of Fmoc-Gly-Wang resin (0.279 mmol/g), run 3
[14] = scale of the general procedure 4.25 g of Fmoc-Gly-Wang resin (0.279 mmol/g), run 4
[15] = scale of the general procedure 4.25 g of Fmoc-Gly-Wang resin (0.279 mmol/g), run 5
[16] = scale of the general procedure 4.25 g of Fmoc-Gly-Wang resin (0.279 mmol/g), run 6
[17] = scale of the general procedure 4.25 g of Fmoc-Gly-Wang resin (0.279 mmol/g), run 7
[18] = scale of the general procedure 4.25 g of Fmoc-Gly-Wang resin (0.279 mmol/g), run 8
[19] = scale of the general procedure 4.25 g of Fmoc-Gly-Wang resin (0.279 mmol/g), run 9
[20] = scale of the general procedure 4.25 g of Fmoc-Gly-Wang resin (0.279 mmol/g), run 10

liraglutide
crude HPLC purity [1]: 70.61% | crude purity (method not given) [1]: 70.61% and 71.68% and 72.02% and 72.72% and 70.72% and 71.53% and 72.03% and 70.36% | final HPLC purity [1]: 99.27% | crude HPLC purity [2]: 68.61% | final HPLC purity [2]: 97.53% | crude HPLC purity [3]: 71.68% | final HPLC purity [3]: 99.31% | crude HPLC purity [4]: 72.02% | final HPLC purity [4]: 99.23% | crude HPLC purity [5]: 72.72% | final HPLC purity [5]: 99.36% | crude HPLC purity [6]: 70.72% | final HPLC purity [6]: 99.48% | crude HPLC purity [7]: 71.53% | final HPLC purity [7]: 99.50% | crude HPLC purity [8]: 72.03% | final HPLC purity [8]: 99.51% | crude HPLC purity [9]: 70.36% | final HPLC purity [9]: 99.48% | crude HPLC purity [10]: 68.63% | final HPLC purity [10]: 98.36% | crude yield [11]: 91.2% | crude yield [12]: 79.8% | crude yield [13]: 90.2% | crude yield [14]: 90.5% | crude yield [15]: 91.5% | crude yield [16]: 91.8% | crude yield [17]: 91.5% | crude yield [18]: 90.6% | crude yield [19]: 90.8% | crude yield [20]: 80.5% | isolated yield [11]: 25.12% | isolated yield [12]: 12.58% | isolated yield [13]: 23.14% | isolated yield [14]: 24.14% | isolated yield [15]: 24.36% | isolated yield [16]: 25.14% | isolated yield [17]: 24.65% | isolated yield [18]: 23.46% | isolated yield [19]: 24.12% | isolated yield [20]: 11.34% | isolated mass (run 1): 0.48 g | isolated mass (run 2): 0.47 g

Several values for one entry are separate records, joined by “and”; a condition that tells them apart may be missing. Identical values can stand only once.
